Laboratory results published in article doi:10.1101/2020.12.18.423402.
Results are given in words; binding and its absence hold for the method and conditions named. Binding seen in cells or lysates may run through a third protein. Tags and fused reporters may be left off the sequences shown.

Sequences of proteins named here, by UniProt entry; tags and fusion partners are left off. A change or cut given only in a name is not applied to a line headed by its entry.
UniProt Q01974: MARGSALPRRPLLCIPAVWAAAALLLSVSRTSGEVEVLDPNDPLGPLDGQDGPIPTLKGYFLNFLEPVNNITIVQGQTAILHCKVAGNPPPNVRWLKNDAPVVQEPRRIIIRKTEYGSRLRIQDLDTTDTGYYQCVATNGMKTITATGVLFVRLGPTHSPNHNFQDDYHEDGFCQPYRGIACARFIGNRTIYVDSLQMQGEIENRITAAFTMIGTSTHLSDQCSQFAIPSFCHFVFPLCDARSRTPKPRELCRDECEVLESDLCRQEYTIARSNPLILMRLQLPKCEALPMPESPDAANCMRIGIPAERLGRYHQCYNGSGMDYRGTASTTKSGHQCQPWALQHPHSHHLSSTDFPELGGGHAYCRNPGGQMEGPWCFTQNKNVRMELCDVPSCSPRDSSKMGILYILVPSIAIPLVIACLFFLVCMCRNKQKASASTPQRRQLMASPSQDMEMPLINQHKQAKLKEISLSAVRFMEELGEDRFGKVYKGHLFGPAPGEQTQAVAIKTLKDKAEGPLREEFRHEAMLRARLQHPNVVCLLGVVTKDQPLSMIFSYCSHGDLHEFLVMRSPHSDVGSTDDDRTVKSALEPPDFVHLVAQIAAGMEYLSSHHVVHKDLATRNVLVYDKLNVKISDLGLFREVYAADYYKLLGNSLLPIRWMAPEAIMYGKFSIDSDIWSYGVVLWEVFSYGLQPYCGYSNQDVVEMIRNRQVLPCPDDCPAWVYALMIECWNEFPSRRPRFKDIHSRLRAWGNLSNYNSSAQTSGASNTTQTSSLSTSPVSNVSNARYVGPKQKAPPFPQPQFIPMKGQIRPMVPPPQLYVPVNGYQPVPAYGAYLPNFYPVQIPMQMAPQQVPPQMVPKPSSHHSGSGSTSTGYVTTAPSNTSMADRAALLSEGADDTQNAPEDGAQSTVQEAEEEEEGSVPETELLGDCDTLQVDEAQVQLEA

Target: T1, V5-tagged active WNT11 (UniProt O96014)
T1 sequence: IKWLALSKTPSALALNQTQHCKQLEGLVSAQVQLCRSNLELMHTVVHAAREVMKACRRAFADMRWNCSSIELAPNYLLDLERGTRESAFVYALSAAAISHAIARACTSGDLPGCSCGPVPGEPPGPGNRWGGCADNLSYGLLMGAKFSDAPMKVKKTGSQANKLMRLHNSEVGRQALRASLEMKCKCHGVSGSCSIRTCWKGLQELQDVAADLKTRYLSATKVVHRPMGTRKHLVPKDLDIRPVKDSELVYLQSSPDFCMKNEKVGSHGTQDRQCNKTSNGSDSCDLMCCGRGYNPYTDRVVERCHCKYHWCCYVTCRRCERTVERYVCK
Test: co-IP

ROR2-ΔΔ (amino acids 304-943) (from UniProt Q01974) (domain or fragment)
binding: no binding
